Laboratory results reported in patent publication US20130129725A1.
Results are given in words; binding and its absence hold for the method and conditions named. Some results given as binding are weak or reduced against the parent protein; the word gives no strength.

Protein sequences, listed by entry. Tags and fused reporters are not part of them. Lines headed by an entry give the natural chain unless they say otherwise; changes in a name come on top.
UniProt Q86Z14: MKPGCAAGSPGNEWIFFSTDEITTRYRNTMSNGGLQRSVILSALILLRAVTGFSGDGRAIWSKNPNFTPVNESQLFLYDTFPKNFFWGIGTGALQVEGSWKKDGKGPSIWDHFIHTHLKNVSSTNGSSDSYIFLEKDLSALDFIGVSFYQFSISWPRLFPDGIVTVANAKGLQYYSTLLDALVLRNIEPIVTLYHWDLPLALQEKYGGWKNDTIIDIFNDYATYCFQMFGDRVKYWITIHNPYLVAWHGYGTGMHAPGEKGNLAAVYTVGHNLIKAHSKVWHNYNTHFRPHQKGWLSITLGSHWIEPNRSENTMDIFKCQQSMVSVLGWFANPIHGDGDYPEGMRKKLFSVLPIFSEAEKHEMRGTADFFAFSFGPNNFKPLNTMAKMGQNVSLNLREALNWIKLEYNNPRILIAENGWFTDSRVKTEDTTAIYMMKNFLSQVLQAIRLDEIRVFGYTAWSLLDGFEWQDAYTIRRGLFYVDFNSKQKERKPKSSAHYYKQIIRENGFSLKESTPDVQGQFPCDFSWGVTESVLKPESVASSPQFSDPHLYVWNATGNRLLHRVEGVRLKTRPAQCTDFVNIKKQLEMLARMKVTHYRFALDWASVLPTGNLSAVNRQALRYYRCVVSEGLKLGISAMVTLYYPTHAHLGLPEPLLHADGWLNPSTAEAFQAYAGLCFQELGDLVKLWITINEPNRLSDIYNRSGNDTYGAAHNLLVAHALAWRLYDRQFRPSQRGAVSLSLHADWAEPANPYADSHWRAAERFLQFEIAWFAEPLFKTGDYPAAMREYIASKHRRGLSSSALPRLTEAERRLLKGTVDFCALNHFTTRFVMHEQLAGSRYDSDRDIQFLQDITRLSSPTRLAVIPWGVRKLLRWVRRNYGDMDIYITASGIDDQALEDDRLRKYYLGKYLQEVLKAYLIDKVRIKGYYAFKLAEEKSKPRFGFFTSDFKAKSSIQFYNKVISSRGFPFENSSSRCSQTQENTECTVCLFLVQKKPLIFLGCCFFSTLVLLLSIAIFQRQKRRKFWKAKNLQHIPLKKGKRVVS
UniProt P16092: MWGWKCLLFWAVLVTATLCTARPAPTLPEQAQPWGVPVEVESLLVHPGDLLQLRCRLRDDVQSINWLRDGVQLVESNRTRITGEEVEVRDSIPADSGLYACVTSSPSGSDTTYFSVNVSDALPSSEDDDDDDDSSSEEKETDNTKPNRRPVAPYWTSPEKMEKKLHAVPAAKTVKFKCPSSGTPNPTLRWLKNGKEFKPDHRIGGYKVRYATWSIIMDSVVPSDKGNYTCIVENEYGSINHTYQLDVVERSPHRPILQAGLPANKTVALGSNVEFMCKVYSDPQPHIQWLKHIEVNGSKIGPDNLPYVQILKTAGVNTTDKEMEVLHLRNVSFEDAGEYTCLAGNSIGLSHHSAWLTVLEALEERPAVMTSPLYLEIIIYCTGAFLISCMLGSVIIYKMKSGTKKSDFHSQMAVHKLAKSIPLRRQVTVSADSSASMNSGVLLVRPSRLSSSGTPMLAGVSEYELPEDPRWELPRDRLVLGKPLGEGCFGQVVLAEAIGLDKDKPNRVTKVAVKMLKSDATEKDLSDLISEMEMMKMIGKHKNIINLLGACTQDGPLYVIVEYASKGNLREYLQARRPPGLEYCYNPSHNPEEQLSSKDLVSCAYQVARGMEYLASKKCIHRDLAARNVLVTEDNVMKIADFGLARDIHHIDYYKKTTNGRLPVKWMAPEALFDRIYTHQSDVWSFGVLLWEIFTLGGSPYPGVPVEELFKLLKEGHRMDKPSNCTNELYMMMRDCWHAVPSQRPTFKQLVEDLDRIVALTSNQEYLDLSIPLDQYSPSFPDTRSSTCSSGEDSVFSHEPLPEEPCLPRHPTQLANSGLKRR
UniProt P11362: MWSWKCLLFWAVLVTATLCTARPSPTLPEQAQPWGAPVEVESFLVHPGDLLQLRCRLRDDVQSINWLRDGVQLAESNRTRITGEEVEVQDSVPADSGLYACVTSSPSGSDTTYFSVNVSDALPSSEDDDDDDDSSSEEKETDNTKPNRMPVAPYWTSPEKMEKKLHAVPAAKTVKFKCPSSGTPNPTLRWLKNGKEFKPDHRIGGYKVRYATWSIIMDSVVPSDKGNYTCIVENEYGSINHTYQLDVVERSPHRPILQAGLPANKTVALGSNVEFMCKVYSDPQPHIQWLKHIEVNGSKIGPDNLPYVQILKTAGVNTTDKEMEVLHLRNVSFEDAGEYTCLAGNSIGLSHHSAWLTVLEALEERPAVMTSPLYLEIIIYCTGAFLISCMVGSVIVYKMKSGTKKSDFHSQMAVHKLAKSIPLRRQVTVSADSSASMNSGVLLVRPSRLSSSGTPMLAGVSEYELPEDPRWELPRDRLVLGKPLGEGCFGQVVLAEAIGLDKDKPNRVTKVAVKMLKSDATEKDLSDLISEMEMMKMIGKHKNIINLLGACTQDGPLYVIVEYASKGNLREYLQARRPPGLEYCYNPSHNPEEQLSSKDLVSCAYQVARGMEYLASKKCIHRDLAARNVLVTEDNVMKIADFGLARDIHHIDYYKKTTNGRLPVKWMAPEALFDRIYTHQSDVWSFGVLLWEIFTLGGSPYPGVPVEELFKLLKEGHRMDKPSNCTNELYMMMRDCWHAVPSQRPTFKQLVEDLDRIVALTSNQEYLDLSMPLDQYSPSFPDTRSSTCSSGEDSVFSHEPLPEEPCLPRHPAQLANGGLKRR

Legend:
[1] = target: biotinylated hu-β-klotho (human) (UniProt Q86Z14); assay: Octet QK (BLI), biotinylated hu-β-klotho on streptavidin biosensors (Example 12, FIG. 9A)
mu-FGFR1c-Fc (murine) = mu-FGFR1c-Fc (murine) (UniProt P16092); assay: ELISA (Example 10), antigen on plate (FIG. 13)
[2] = target: human FGFR1c (hu-FGFR1c) (human) (UniProt P11362); assay: peptide library screen and ELISA on plate-coated FGFR1c (Example 6, anti-M13-HRP)

B1: 9D10 (antibody, human IgG2, lambda, V domains shown)
VH: QVQLVESGGGVVQPGRSLRLSCAASGFTFRSYGMHWVRQAPGKGLEWVAVIWYDGRNEYYADSVKGRFTISRDNSKNTLYLRMNSLRAEDTAVYYCARDHPVAGTSFDYWGQGTLVTVSS
VL: QSVLTQPPSVSAAPGQKVTISCSGSSSNIGNNYVSWYQQLPGTAPKLLIYDNNRRPSGIPDRFSGSKSGTSATLGITGLQTGDEADYYCGTWDSSLSAVVFGGGTKLTVLG
- binding [1]: binds

B2: 10H3 (antibody, human IgG2, kappa, V domains shown)
VH: QVQLVQSGAEVRKPGASVKVSCKASGYTFTAYYMHWVRQAPGQGLEWMGWINPYSGGTNSAQKFQGRVTMTRDTSISTAYMELSWLRSDDTAVYYCARDATSGWFDFWGQGTLVTVSS
VL: DIVMTQTPLSSPVTLGQPASISCRSSQSLVHYDGNTYLSWLQQRPGQPPRLLIYKISNRFSGVPDRFSGSGAGTDFTLKISRVAAEDVGIYYCMQALEFPWTFGQGTKVEIKR
- binding [1]: binds

Binder: EWYCGVLFNCQQ [Rm26]
- binding (mu-FGFR1c-Fc (murine)): binds
- binding [2]: binds

Binder: HFKCGMGLFECADP [Rm40]
- binding (mu-FGFR1c-Fc (murine)): binds
- binding [2]: binds

Binder: YQAWGYYV [SR4]
- binding (mu-FGFR1c-Fc (murine)): binds
- binding [2]: binds

Binder: TRLWKYWV [SR1]
- binding [2]: binds

Binder: RRLYIFWE [SR2]
- binding [2]: binds

Binder: YKAWGYYV [SR3]
- binding [2]: binds

Binder: YQAWGYLV [SR5]
- binding [2]: binds

Binder: YQAWGYFV [SR6]
- binding [2]: binds

Binder: FTWVFWNV [SR7]
- binding [2]: binds

Binder: YQVWGYFV [SR8]
- binding [2]: binds

Binder: YKWLKWNL [SR9]
- binding [2]: binds

B3: 1B5 (antibody, human IgG2, kappa, V domains shown)
VH: QVQLVQSGAEVKKPGASVKVSCKASGYTFTAYYMHWVRQAPGQGLEWMGWINPNSGGTNSAQKFQGRVTMTRDTSIRTAYMELSWLRSDDTAVYYCARDATSGWFDFWGQGTPVTVSS
VL: DIVMTQTPLTSPVTLGQPASISCRSSQSLVHYDGNTYLSWLQQRPGQPPRLLIYKISNRFSGVPDRFSGSGAGTDFTLKISRVEAEDVGIYYCMQALEFPWTFGQGTKVEIKR
- binding [1]: binds

Binder: RRLYIFEW [SR10]
- binding [2]: binds

Binder: WAERGG [SR11]
- binding [2]: binds

Binder: YVFYLWWK [SR17]
- binding [2]: binds

Binder: YRWLHWHV [SR18]
- binding [2]: binds

Binder: YKFLFWHA [SR19]
- binding [2]: binds

Binder: RRQWGFWV [SR20]
- binding [2]: binds

Binder: YSAWSFWV [SR21]
- binding [2]: binds

Binder: LARWGFWV [SR22]
- binding [2]: binds

Binder: YDAWGYWV [SR23]
- binding [2]: binds

Binder: WRKYYHFWVS [SR24]
- binding [2]: binds

Binder: KRLYGLFWYD [SR25]
- binding [2]: binds

Binder: KKHWSSLFFE [SR26]
- binding [2]: binds

Binder: KAWPYSWEAV [SR27]
- binding [2]: binds

Binder: HFGCGVIFNCVSD [Rm27]
- binding [2]: binds

B4: 3B4 (antibody, human IgG2, kappa, V domains shown)
VH: QVQLVQSGAEVKKPGASVKVSCKASGYTFTAYYMHWVRQAPGQGLEWMGWINPNSGGTNSAQKFQGRVTMTRDTSIRTAYMELSWLRSDDTAVYYCARDATSGWFDIWGQGTPVTVSS
VL: DIVMTQTPLSSPVTLGQPASISCRSSQSLVHYDGNTYLSWLQQRPGQPPRLLIYKISNRFSGVPDRFSGSGAGTDFTLKISRVEAEDVGIYYCMQALEFPWTFGQGTKVEIKR
- binding [1]: binds

Binder: WELCASGYGWCYLH [Rm33]
- binding [2]: binds

Binder: APSCKSYIGFGLYHCWDG [Rm37]
- binding [2]: binds

B5: 3F4 (antibody, human IgG2, lambda, V domains shown)
VH: QVQLVESGGGVVQPGRSLRLSCAASGFIFRSYGMHWVRQAPGKGLEWVAVISYDGSNKYYADSVKGRFTISRDNSKNTLYLQMNSLRAEDTAVYYCARDHPVAGTSFDYWGQGTLVTVSS
VL: QSVLTQPPSVSAAPGQKVTISCSGSSSNIGNNYVSWYQQLPGTAPKLLIYDNNNRPSGIPDRFSGSKSGTSATLGITGLQTGDEADYYCETWDSSLSAGVFGGGTKLTVLG
- binding [1]: binds
